Molecules are shown by their SMILES. The campaign covered roughly 1,200 compounds. Fewer than 10 were called active. Calls come from the whole dose curve; as a rule, active = well fitted curve in the direction sought with a large enough effect; inconclusive = small, poorly fitted or top-dose-only effect, or another doubt; inactive = no such curve, though single readings can be large or run the other way. The list shows a part of the results.

Protein sequences, listed by entry. Tags and fused reporters are not part of them. Lines headed by an entry give the natural chain unless they say otherwise; changes in a name come on top.
UniProt P11308: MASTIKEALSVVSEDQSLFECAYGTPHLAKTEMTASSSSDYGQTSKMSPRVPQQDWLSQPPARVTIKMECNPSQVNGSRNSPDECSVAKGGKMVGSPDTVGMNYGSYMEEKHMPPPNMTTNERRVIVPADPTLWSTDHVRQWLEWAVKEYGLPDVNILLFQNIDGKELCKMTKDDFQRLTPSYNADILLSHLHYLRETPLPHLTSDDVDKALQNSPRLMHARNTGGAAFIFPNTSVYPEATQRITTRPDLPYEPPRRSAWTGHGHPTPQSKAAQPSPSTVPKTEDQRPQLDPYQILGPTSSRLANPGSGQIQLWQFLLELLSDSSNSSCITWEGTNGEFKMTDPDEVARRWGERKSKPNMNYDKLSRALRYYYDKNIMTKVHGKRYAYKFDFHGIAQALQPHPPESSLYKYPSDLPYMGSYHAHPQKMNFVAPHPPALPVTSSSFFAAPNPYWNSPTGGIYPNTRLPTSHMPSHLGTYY

In this experiment the target is Transcriptional regulator ERG (Homo sapiens) (UniProt P11308). The experiment is described as follows: qHTS for Small Molecule Inhibitors of the ERG Ets/DNA interaction: TR assay against cherry picks. Note: % of control where 0% means no effect. The following applies: ERG Ets domain-DNA fluorescence polarization, Texas red probe; at 154 µM (top of the series). The method, boiled down:
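Polarization read sequentially for fluorescein (ex 480/em 535 nm) and Texas red (ex 555/em 632 nm) probes, 5 nM and 100 nM solutions, displaced from His-ERG Ets domain (1 uM solution), pH 7.5 Tris/KCl/EDTA/DTT buffer.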
On to `Cc1nc(-c2ccc(F)cc2)c(CC(=O)N2CCN(S(=O)(=O)c3cccc(F)c3)CC2)s1`, for which the activity change, negative = inhibition was inactive: -7.98%.

Regarding `CC(C)N1CCC(N2CCN(Cc3cccc4nonc34)CC2CCO)CC1` (configuration not stated), the activity change, negative = inhibition is inactive: 6.57%.

In the case of `CCc1ccccc1N(CC(=O)NCc1ccco1)C(=O)CCC(=O)Nc1ccccn1`, the activity change, negative = inhibition was inactive: -0.223%.

Take `O=C(Nc1c(C(=O)C2CC2)oc2ccccc12)c1ccc(Cl)cc1`: the activity change, negative = inhibition was inactive: -18.4%.

Consider `Cc1ccc(NS(=O)(=O)c2cc(Br)cnc2N)c(Cl)c1`, for which the activity change, negative = inhibition was inactive: -14.9%.

In the case of `Cc1cc(C)cc(-n2ccnc2SCC(=O)Nc2ccc(C)c(Cl)c2)c1`, the activity change, negative = inhibition was inactive: -21.9%.

Consider `CCCn1c(=N)c(S(=O)(=O)c2ccccc2)cc2c(=O)n3ccccc3nc21`, for which the activity change, negative = inhibition is inactive: -0.744%.

Take `CCOc1ccc(NC(=O)CCNS(=O)(=O)c2cccc3nsnc23)cc1`: the activity change, negative = inhibition was inactive: -17.3%.

For the compound `CCC1CCC(NC(=O)Nc2cccc(OC)c2)CC1` (configuration not stated), the activity change, negative = inhibition is inactive: -3.04%.

As to `Cc1cccc(Nc2c(O)nc[nH]c2=O)c1`, the activity change, negative = inhibition was inactive: 1.66%.

With `Cn1cccc1C(=O)OCC(=O)Nc1ccc2[nH]c(=O)[nH]c2c1`, the activity change, negative = inhibition is inactive: -18.6%.

As for `O=C(O)c1ccc(CSCc2ccccc2F)o1`, the activity change, negative = inhibition is inactive: -8.02%.

Turning to `C[C@H](NC(=O)[C@@H]1Cc2ccccc2CN1C(=O)OC(C)(C)C)C(=O)NC1CCCCC1`, the activity change, negative = inhibition is inactive: 3.13%.

For `CCOCCn1c(CN2CCCCC2)nc2c1c(=O)n(C)c(=O)n2C`, the activity change, negative = inhibition is inactive: -5.6%.

Turning to `CCOC(=O)C1=C(C)N=c2s/c(=C\c3cc(OC)c(OC)c(OC)c3)c(=O)n2C1/C=C/c1ccccc1` (configuration not stated), the activity change, negative = inhibition is inactive: 3.6%.

As for `CC(=O)Nc1ccc(S(=O)(=O)N[C@@H](C)C(=O)N2CCN(C/C=C/c3ccccc3)CC2)cc1`, the activity change, negative = inhibition is inactive: -0.505%.

Turning to `CC(=O)Nc1ccc2c(c1)NC(=O)CC2`, the activity change, negative = inhibition is inactive: -10.3%.

As to `CC(C)(CO)CNC(=O)c1ccc(OC2CCN(C(=O)C3CC3)CC2)cc1`, the activity change, negative = inhibition is inactive: -13.8%.

Consider `O=C(NCc1ccc(F)cc1F)c1cc(COc2c(F)cccc2F)on1`, for which the activity change, negative = inhibition is inactive: 9.58%.

On to `O=C(OCC(=O)c1c[nH]c2ccccc12)c1ccc([N+](=O)[O-])s1`, for which the activity change, negative = inhibition is inactive: -15.3%.

`Cc1oc2nc(SCCCC(=O)NCCCO)nc(N)c2c1C`: the activity change, negative = inhibition was inactive: 5%.

Consider `CCc1c(C)sc(NC(=O)OC)c1C(=O)N1CCCCC1`, for which the activity change, negative = inhibition was inactive: 37.7%.

Take `Cc1ccc(CNC(=O)CSCc2ccc(F)cc2)cc1`: the activity change, negative = inhibition was inactive: 6.78%.

For the compound `O=C(O)CC(c1cccc2ccccc12)N1Cc2ccccc2C1=O` (configuration not stated), the activity change, negative = inhibition was inactive: -0.839%.

On to `S=c1nc[nH]c2nc[nH]c12`, for which the activity change, negative = inhibition is inactive: -2.25%.

On to `CC(=O)Nc1ccc(-c2csc(NC(=O)C3CC(=O)N(c4ccc5c(c4)OCCO5)C3)n2)cc1` (configuration not stated), for which the activity change, negative = inhibition was inactive: -2.75%.

`CCCC(=Nc1ccc(N)cc1)C1=C(O)C(C(=O)OC)C(C)(C)CC1=O` (configuration not stated): the activity change, negative = inhibition is inactive: 7.31%.

Regarding `COc1ccccc1CN1CCCCC1C(=O)O` (configuration not stated), the activity change, negative = inhibition was inactive: 5.9%.

On to `O=C(Nc1ccc(O)cc1)C1CC=CCC1` (configuration not stated), for which the activity change, negative = inhibition was inactive: -10.8%.

Regarding `Cc1ccccc1-n1c(=O)n(CCc2ccccc2)c(=O)c2[nH]cnc21`, the activity change, negative = inhibition is inactive: 6.33%.

Consider `CCS(=O)(=O)N1CCC(C(=O)OCC(=O)c2ccc(Br)cc2)CC1`, for which the activity change, negative = inhibition was inactive: 8.14%.

As for `COc1ccc(Cl)cc1N=Cc1c(O)c2ccccc2oc1=O`, the activity change, negative = inhibition is inactive: -10.2%.

Take `C=CCN1C(=O)c2ccc(C(=O)Nc3ccccn3)cc2C1=O`: the activity change, negative = inhibition was inactive: -1.88%.

Regarding `Cc1cccc(N2C(=O)c3cccc4c(N)ccc(c34)C2=O)c1`, the activity change, negative = inhibition is inactive: 85.1%.

Take `O=c1ccc(-c2ccc(S(=O)(=O)Nc3cccc(Br)c3)o2)n[nH]1`: the activity change, negative = inhibition is inactive: 2.8%.

With `O=C1Nc2cc(C(=O)N3CCOCC3)ccc2SC1N1CCOCC1` (configuration not stated), the activity change, negative = inhibition is inactive: 24.3%.

With `CC(C)=CCC/C(C)=C/CNC(=O)C[C@H]1C[C@H](C(=O)N2CCCCC2)[C@@]2(CCc3ccccc3)c3[nH]c4cc(-c5ccco5)ccc4c3CCN2C1=O`, the activity change, negative = inhibition was inactive: 33.8%.

With `NS(=O)(=O)c1ccc(-c2ccc(/C=C3\SC(=S)N(C4CCS(=O)(=O)C4)C3=O)o2)cc1` (configuration not stated), the activity change, negative = inhibition was inactive: 41.9%.

For `Cc1csc(SCC(=O)NC2CCS(=O)(=O)C2)n1` (configuration not stated), the activity change, negative = inhibition is inactive: 3.76%.

On to `O=C(CCN=C1NS(=O)(=O)c2ccccc21)OCc1ccccc1`, for which the activity change, negative = inhibition is inactive: 8.89%.

On to `COC(=O)Nc1ccc(S(=O)(=O)NNC(=O)c2c(O)c3ccccc3n(C)c2=O)cc1`, for which the activity change, negative = inhibition is inactive: -14.6%.

Consider `Cc1ccc(S(=O)(=O)/N=C(/NC(=S)Nc2c(C)n(C)n(-c3ccccc3)c2=O)c2ccccc2)cc1`, for which the activity change, negative = inhibition was inactive: 4.97%.

On to `COc1cc(OC)c(N(C)S(=O)(=O)c2cccc(C(=O)NC(C)C3CC4CCC3C4)c2)cc1Cl` (configuration not stated), for which the activity change, negative = inhibition is inactive: -3.28%.

For the compound `CCCN(CC(=O)Nc1ccc(F)c(F)c1F)C(=O)C1CC(=O)N(Cc2ccccc2)C1` (configuration not stated), the activity change, negative = inhibition is inactive: 0.104%.

Turning to `Clc1ccc(N=c2ssnc2Cl)nc1`, the activity change, negative = inhibition was inactive: 22.8%.

For `O=C(OCC(=O)c1ccc(Cl)s1)c1cncc(Br)c1`, the activity change, negative = inhibition was inactive: -5.16%.

As to `COC(=O)c1ccccc1NC(=O)c1cc(C2CC2)on1`, the activity change, negative = inhibition is inactive: -11.6%.

As for `Nc1cccc2c(O)cc(S(=O)(=O)O)cc12`, the activity change, negative = inhibition is inactive: -7.17%.

As to `CC1=C(C#N)CCC(=O)N1Cc1c(F)cccc1Cl`, the activity change, negative = inhibition was inactive: 3.55%.

As for `Nc1c(C(=O)O)cnn1-c1ccccc1`, the activity change, negative = inhibition is inactive: -3.42%.

Regarding `CCN(Cc1ccccc1)C(=O)CN1C(=O)c2ccccc2C1=O`, the activity change, negative = inhibition is inactive: -0.388%.

With `O=C(COc1coc(CN2CCCc3ccccc32)cc1=O)Nc1cccc([N+](=O)[O-])c1`, the activity change, negative = inhibition was inactive: 2.41%.

For the compound `Cc1ccc(S(=O)(=O)NCC(=O)N(CC(=O)NCC2CCCO2)c2cccc(F)c2)cc1` (configuration not stated), the activity change, negative = inhibition was inactive: -5.86%.

Turning to `COc1cc2ccccc2ccc1=NO`, the activity change, negative = inhibition was inactive: -9.11%.

For the compound `CCCn1c(SCC(=O)Nc2cccc(C(=O)OCC)c2)nnc1-c1ccoc1C`, the activity change, negative = inhibition is inactive: 11.3%.

On to `CC(CCc1ccccc1)NC(=S)NC1CCCCC1` (configuration not stated), for which the activity change, negative = inhibition was inactive: 10.3%.

Turning to `CC(C)=CCOc1ccc2ccc(=O)oc2c1`, the activity change, negative = inhibition is inactive: -0.682%.

In the case of `Cc1ccc(-n2c(CCC(=O)O)ccc2-c2cccs2)cc1Cl`, the activity change, negative = inhibition was inactive: -7.34%.

Take `Cc1cccc(-c2oc3ccccc3c2-c2ccc3c(c2)OCO3)c1`: the activity change, negative = inhibition is inactive: 2.05%.

Turning to `O=C(NCCCc1ccccc1)C(=O)NCC1OCCN1S(=O)(=O)c1cc(F)ccc1F` (configuration not stated), the activity change, negative = inhibition is inactive: 12.2%.

`Cc1ccc(S(=O)(=O)N2CCC[C@H]2C(=O)NC2CCCCC2)cc1`: the activity change, negative = inhibition is inactive: -7.93%.

As to `COc1ccc(CS(=O)c2nc(C)cc(C)c2S(C)(=O)=O)cc1` (configuration not stated), the activity change, negative = inhibition was inactive: -3.05%.

With `CCOc1ccc(-c2nnc(NC(=O)Cc3cc(OC)c(OC)c(OC)c3)o2)cc1`, the activity change, negative = inhibition was inactive: 3.11%.

In the case of `CCOC(=O)c1ccc(NC(=S)N2CCSC2c2ccc(OC)cc2)cc1` (configuration not stated), the activity change, negative = inhibition is inactive: 25.8%.

As for `O=C(Nc1ccccc1N1CCCCC1)c1ccc2nccnc2c1`, the activity change, negative = inhibition is inactive: -20.5%.

On to `COc1ccc(-c2c/c(=N\c3nc(-c4ccccc4)c(C)s3)c3ccccc3o2)cc1O`, for which the activity change, negative = inhibition is inactive: -21.1%.

In the case of `c1ccc2oc(-c3ccn[nH]3)cc2c1`, the activity change, negative = inhibition was inactive: -4.22%.

For the compound `O=C(O)c1ccccc1Nc1cccc(OCc2ccc3ccccc3n2)c1`, the activity change, negative = inhibition was inactive: -17%.

As to `N#Cc1c(C(F)(F)F)cc(-c2cccs2)nc1SCC(=O)Nc1cccc(Br)c1`, the activity change, negative = inhibition is inactive: 5.95%.

On to `O=C(N/N=C/c1ccc(-c2ccccc2[N+](=O)[O-])o1)[C@H]1C[C@@H]1c1ccccc1`, for which the activity change, negative = inhibition is inactive: -18.9%.

Regarding `N#C/C(=C\c1cn[nH]c1-c1ccc(Cl)cc1)C(=O)NCc1ccccc1`, the activity change, negative = inhibition was inactive: 1.73%.

With `Nc1ccncc1N`, the activity change, negative = inhibition was inactive: 1.22%.

Regarding `O=C(C[C@H]1C/C=C\CC[C@@H](Cc2ccc(F)cc2)C(=O)OC[C@H]2CCCN2C1=O)N[C@H](CO)Cc1ccccc1`, the activity change, negative = inhibition was inactive: -10%.

As to `CN1C2CCC1CC(NC(=O)CSCc1ccc(Cl)cc1Cl)C2` (configuration not stated), the activity change, negative = inhibition is inactive: 24.2%.

As to `CCNc1nc(OCC)nc(N2CCC(Cc3ccccc3)CC2)n1`, the activity change, negative = inhibition is inactive: -16.7%.

In the case of `O=C(NCc1ccccc1)/C(=C/c1ccco1)NC(=O)c1ccco1`, the activity change, negative = inhibition was inactive: 2.17%.

`CCOC(=O)C1(Cc2ccccc2Cl)CCN(S(=O)(=O)N(C)C)CC1`: the activity change, negative = inhibition is inactive: -13.5%.

On to `CCCCN1C(N)=NC[C@@H]1CC1CCCCC1`, for which the activity change, negative = inhibition is inactive: 3.53%.

As for `CN(C)CCCNc1c2ccccc2nc2ccccc12`, the activity change, negative = inhibition was inactive: -2.02%.

Regarding `Cc1ccc(S(=O)(=O)N2[C@@H](c3ccccc3F)C(C(=O)O)=CC[C@H]2c2cccs2)cc1`, the activity change, negative = inhibition was inactive: 4.24%.

As for `O=C(OCCOCCN=C1NS(=O)(=O)c2ccccc21)c1ccccc1Br`, the activity change, negative = inhibition was inactive: 4.92%.

As to `O=C(O)c1ccc(Nc2ncnc3scc(-c4ccccc4)c23)cc1`, the activity change, negative = inhibition is inactive: -2.03%.

With `COc1cccc(CN2CCNC(=O)C2CC(=O)N(Cc2cnn(C)c2)C(C)C)c1` (configuration not stated), the activity change, negative = inhibition was inactive: 0.414%.

As for `CC(C[N+](C)(C)C)OC(N)=O` (configuration not stated), the activity change, negative = inhibition is inactive: 3.29%.

Regarding `CCN1CCN(c2oc(-c3ccc([N+](=O)[O-])cc3)nc2C#N)CC1`, the activity change, negative = inhibition was inactive: -7.07%.

Take `Cc1ccc(C(=O)N2CCN(c3ccc(NC(=O)CSc4ccc(Cl)cc4)cc3)CC2)cc1`: the activity change, negative = inhibition is inactive: -2.73%.

`O=C(Cn1cnc(S(=O)(=O)N2CCCCC2)c1)N1CCN(c2ccc([N+](=O)[O-])cc2)CC1`: the activity change, negative = inhibition is inactive: 4.86%.

As for `CCc1n[nH]c(=S)n1/N=C/c1ccc(N(C)c2ccccc2)cc1`, the activity change, negative = inhibition was inactive: 1.89%.

As to `CN(C)C=NC(=O)c1cc(C(=O)c2ccc(Cl)cc2)c[nH]1`, the activity change, negative = inhibition is inactive: -14.8%.

Regarding `COc1ccc(C(=O)NCC(=O)N2CCN(C(=O)c3ccco3)CC2)cc1`, the activity change, negative = inhibition is inactive: 4.13%.

`Cc1ccc(COC(=O)CCN=C2NS(=O)(=O)c3ccccc32)cc1`: the activity change, negative = inhibition is inactive: 1.6%.

Consider `Cc1ccccc1NC(=O)COc1ccc2oc(=O)cc(C)c2c1`, for which the activity change, negative = inhibition was inactive: 6.08%.

The record behind these values is PubChem BioAssay AID651803 (National Center for Advancing Translational Sciences (NCATS), 2012).
